The assay deals with T1, Forkhead box M1 (FOXM1), FLAG-tagged (UniProt Q08050).
T1 sequence: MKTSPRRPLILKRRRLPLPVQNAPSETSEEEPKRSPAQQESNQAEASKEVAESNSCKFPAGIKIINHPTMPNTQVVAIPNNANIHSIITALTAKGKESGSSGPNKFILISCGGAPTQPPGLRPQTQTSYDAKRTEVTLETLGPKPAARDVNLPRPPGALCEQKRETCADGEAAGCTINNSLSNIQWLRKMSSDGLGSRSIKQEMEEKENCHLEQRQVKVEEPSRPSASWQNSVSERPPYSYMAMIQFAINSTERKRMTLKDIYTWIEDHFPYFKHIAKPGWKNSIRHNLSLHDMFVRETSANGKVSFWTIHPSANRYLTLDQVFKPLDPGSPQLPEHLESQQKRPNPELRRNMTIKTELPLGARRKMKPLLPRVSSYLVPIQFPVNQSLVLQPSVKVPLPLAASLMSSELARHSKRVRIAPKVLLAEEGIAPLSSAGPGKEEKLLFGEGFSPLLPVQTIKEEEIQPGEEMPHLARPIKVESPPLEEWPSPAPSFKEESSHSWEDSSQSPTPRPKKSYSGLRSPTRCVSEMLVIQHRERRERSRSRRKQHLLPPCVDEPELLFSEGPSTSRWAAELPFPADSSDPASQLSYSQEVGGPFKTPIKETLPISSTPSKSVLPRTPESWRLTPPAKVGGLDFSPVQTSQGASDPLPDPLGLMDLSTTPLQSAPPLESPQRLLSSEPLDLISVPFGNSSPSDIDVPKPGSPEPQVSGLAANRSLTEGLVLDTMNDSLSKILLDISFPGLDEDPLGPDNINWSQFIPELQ
Nature of the assay: co-IP; HEK293T cells transfected with the tagged constructs, 10 uM MG132 for 8 hours before harvest; lysis in EBC buffer (50 mM Tris pH 7.5, 120 mM NaCl, 0.5% NP-40); anti-HA or anti-FLAG agarose beads, 3 hours at 4 °C; washed with NETN buffer; immunoblot; some panels with DMSO or RCM-1 (10 uM) and LMB (25 nM) for 24 hours. (In general: Immunoblotting shows a protein as a band on a membrane.)

The chains behind the UniProt entries cited, without tags or fusion partners. Where a name states a change or a piece, a line headed by the entry shows the natural chain unless it says otherwise.
UniProt Q9ULX5: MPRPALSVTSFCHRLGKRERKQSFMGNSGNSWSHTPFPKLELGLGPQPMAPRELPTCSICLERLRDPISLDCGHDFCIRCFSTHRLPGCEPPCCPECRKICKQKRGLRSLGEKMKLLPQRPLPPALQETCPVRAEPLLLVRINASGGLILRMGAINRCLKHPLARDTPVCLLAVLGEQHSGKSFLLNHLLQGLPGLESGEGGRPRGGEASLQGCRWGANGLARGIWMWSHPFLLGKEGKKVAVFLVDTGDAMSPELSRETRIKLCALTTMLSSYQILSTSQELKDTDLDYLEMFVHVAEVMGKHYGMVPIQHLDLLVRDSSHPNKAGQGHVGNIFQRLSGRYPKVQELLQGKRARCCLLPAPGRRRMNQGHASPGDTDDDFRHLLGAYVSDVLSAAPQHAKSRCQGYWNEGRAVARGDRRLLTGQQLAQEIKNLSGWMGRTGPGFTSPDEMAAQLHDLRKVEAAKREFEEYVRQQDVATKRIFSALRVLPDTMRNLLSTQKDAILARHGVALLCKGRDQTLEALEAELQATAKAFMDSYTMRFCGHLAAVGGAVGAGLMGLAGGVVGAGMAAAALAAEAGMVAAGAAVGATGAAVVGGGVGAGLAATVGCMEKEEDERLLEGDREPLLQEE

Experimental findings from PMC10259508 are described below.

Results are given in words; binding and its absence hold for the method and conditions named. Binding seen in cells or lysates may run through a third protein. Binding calls can cover weak binding; strength is not graded here. Sequences can lack the tags named with a protein.

As for “catalytic dead RNF112 (RNF112-Mut) (from UniProt Q9ULX5) (enzyme)”, the binding result is reported as “binds”.
